Experimental data published in article PMC515284.
Results are given in words; binding and its absence hold for the method and conditions named. Some binding calls cover weakened binding; strength is not graded here.

Protein sequences, listed by entry. Tags and fused reporters are not part of them. Lines headed by an entry give the natural chain unless they say otherwise; changes in a name come on top.
UniProt P28339: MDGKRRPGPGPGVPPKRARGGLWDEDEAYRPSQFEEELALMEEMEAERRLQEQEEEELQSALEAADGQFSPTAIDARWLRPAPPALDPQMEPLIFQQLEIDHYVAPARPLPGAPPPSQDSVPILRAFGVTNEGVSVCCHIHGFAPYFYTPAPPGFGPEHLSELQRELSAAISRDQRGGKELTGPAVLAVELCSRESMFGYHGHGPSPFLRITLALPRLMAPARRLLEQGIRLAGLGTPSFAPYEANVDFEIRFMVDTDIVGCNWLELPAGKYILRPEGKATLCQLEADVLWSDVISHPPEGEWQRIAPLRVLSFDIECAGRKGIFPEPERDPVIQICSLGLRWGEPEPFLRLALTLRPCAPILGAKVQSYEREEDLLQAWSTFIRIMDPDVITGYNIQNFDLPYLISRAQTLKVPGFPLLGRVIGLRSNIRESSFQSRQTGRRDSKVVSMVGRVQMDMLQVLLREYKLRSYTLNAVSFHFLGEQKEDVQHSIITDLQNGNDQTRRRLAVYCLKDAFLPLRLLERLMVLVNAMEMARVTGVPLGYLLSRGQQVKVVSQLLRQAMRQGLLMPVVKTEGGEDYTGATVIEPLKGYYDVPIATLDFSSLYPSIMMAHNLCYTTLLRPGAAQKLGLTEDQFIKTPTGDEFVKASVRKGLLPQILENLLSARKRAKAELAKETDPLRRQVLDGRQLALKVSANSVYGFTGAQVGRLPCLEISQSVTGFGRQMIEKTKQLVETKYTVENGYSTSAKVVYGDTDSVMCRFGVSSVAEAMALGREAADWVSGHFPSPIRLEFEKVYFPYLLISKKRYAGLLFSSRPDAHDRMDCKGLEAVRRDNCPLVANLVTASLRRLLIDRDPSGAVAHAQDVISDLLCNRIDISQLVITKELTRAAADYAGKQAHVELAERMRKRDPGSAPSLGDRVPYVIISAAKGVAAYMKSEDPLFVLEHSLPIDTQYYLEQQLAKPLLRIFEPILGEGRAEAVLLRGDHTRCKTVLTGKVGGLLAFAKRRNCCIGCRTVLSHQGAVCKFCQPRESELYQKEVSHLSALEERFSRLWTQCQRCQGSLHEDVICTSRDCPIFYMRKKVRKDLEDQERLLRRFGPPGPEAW
UniProt P49004: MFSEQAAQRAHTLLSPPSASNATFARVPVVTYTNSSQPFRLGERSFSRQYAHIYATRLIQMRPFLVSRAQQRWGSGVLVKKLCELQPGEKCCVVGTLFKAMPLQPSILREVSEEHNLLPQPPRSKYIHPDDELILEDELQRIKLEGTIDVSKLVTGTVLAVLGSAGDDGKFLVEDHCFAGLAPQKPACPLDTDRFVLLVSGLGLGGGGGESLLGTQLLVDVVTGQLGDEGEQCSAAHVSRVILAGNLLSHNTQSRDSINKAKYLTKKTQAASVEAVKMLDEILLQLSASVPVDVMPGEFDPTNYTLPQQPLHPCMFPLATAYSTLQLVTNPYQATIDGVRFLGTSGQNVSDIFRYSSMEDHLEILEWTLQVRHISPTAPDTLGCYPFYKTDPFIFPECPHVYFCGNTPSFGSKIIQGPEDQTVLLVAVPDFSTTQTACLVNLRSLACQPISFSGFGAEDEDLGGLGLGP
UniProt P17917: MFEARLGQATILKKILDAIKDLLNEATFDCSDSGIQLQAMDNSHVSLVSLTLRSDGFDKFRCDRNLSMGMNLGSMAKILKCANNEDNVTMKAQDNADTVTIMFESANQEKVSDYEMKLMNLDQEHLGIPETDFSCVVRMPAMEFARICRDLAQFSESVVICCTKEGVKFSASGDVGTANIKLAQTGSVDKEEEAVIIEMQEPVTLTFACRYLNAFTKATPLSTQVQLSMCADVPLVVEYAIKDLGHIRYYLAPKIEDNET

Molecular target: calf thymus DNA polymerase δ (two-subunit form) (bovine (endogenous in calf thymus)) (UniProt P28339+P49004)
Experiment: native gel or EMSA; nondenaturing PAGE band mobility shift of 32P-labelled 30-21-mer template-primer (0.1 pmol) with 10 ng pol δ and 70 ng PCNA; without MgCl2, 3 mM EDTA in incubation and gel buffer; essentially qualitative; the complex holds DNA as well; both purified

In the case of “NH2-terminally his-tagged wild-type Drosophila PCNA (from UniProt P17917 1-260)”, the binding is reported as “binds weakly”.
